Data from EP4067371A1, “T-CELL RECEPTORS SPECIFIC FOR HEPATITIS C VIRUS PEPTIDES” (Max-Delbrück-Centrum für Molekulare Medizin in der …, priority 2021, dated 2022).
Not every detail of the peptide structures is certain; ends, links or a residue may be inferred.

System: CD8+ T-cell responses
Assay: Immunization of ABabDII mice, ex vivo peptide re-stimulation of splenocytes, intracellular IFN-y staining
Format: in vivo
Conditions: Ad.NS3 immunized ABabDII mice, average, P = 0.0412

In the case of CC(C)[C@H](NC(=O)[C@@H](NC(=O)[C@H](Cc1c[nH]c2ccccc12)NC(=O)[C@H](CS)NC(=O)[C@@H](NC(=O)CNC(=O)[C@H](CC(N)=O)NC(=O)[C@@H](NC(=O)[C@@H](N)CS)C(C)C)C(C)C)[C@@H](C)O)C(=O)O [NS3 1073-1b], the “CD8+ T-cell responses, fold higher than the ones to NS3 1406-1b” value is reported as 3.7 fold.
